The whole screen tested about 580,000 compounds, of which about 6,100 (1.1%) were called active. This list was built around the results that the source calls inconclusive (neither active nor inactive); the mix of calls is not that of the screen. The call rests on the fitted dose curve; in most records, active means well fitted inhibition curve with a large enough effect; inconclusive means small, poorly fitted or top-dose-only effect, or another doubt; inactive means no such curve, though single readings can be large or run the other way. Potencies beside an inconclusive call are fits to weak or partial responses and may not hold up.
target: Polyunsaturated fatty acid lipoxygenase ALOX12 (Homo sapiens) (UniProt P18054); assay: Primary qHTS assay for inhibitors of human arachidonate 12S-lipoxygenase (ALOX12): Round 2; conditions: purified 12hLO, xylenol orange hydroperoxide absorbance; activity change, negative = inhibition: at 108 µM (top of the series) unless noted
Outline: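 Hydroperoxide product was detected by ferrous iron/xylenol orange as the 573 to 405 nm absorbance ratio. Arachidonic acid at 40 uM (final) was turned over for 30 min at room temperature by 150 nM human 12hLO, pH 7.0 Hepes buffer, after 15 min compound preincubation.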
On the % scale 0 is the no-effect control and ±100 the full control effect; potency means the concentration at half of the fitted maximal effect.

Protein sequences, listed by entry. Tags and fused reporters are not part of them. Lines headed by an entry give the natural chain unless they say otherwise; changes in a name come on top.
UniProt P18054: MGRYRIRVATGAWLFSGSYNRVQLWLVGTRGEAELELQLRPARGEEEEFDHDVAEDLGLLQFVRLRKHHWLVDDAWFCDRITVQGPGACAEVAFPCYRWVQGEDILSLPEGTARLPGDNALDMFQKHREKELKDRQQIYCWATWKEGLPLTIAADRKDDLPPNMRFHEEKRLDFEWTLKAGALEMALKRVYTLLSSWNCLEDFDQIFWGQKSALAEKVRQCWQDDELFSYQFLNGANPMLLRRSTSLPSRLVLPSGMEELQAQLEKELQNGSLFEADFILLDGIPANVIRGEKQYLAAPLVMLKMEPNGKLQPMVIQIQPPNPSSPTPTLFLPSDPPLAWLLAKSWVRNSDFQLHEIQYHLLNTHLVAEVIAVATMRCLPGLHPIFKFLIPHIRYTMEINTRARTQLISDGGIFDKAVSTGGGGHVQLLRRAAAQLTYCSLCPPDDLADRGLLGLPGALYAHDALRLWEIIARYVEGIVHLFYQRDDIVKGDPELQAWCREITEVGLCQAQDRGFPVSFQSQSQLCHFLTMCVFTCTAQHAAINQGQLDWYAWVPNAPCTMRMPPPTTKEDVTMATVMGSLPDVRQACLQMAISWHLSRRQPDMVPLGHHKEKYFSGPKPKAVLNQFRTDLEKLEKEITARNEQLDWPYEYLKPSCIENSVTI

Question: How did the “activity change, negative = inhibition” value turn out when CN1CCN(C(=S)Nc2cccc(Cl)c2)CC1 was run?
Answer: inactive: 7.84%

Question: Which Potency does the source give for CN1CCOC(=O)/C1=N/Nc1cc(Cl)ccc1Cl here?
Answer: inconclusive: 112 µM [inhibitor, partial curve, poor fit]

Question: For O=C(Nc1ccnn1C1CCN(C(=O)c2ccc3n[nH]nc3c2)CC1)C1CC1, which “activity change, negative = inhibition” value is on record?
Answer: inactive: 56.3%

Question: How did the Potency turn out when Cc1[nH]n(-c2ccccc2)c(=O)c1N=Nc1cccc(C(=O)O)c1 was run?
Answer: inconclusive: 12.6 µM [inhibitor, full curve, poor fit]

Question: How did the Potency turn out when COc1ccc(Cn2c(C)nc3ccc([N+](=O)[O-])cc3c2=O)cc1 was run?
Answer: inconclusive: 50.1 µM [inhibitor, partial curve, poor fit]

Question: Which Potency does the source give for O=c1cc(CNc2cc(Cl)ccc2Cl)nc2sccn12 here?
Answer: inconclusive: 20 µM [inhibitor, partial curve]

Question: With CC(=O)Nc1c(C)noc1/C=C\c1ccc(C)c(S(=O)(=O)Nc2cc(C)ccc2C)c1 as the molecule, how does the Potency read?
Answer: inconclusive: 50.1 µM [inhibitor, partial curve, poor fit]

Question: Which Potency does the source give for COC(=O)C1=C(C(=O)OC)SC2(S1)C(C(=O)OC)=C(C(=O)OC)SC1=C2c2cc(C)ccc2NC1(C)C here?
Answer: inconclusive: 11.2 µM [inhibitor, partial curve, poor fit]

Question: How did the Potency turn out when Cc1c(C)c2c(c(C)c1O)CCC(C)(C(=O)O)O2 (stereo unspecified) was run?
Answer: inconclusive: 35.5 µM [inhibitor, partial curve, poor fit]

Question: For COc1ccc(Br)cc1C[N+]1(C)CCCCC1, which Potency is on record?
Answer: active: 15.8 µM

Question: How did the “activity change, negative = inhibition” value turn out when CCNC(=S)N/N=C/c1ccc(OCC(=O)Nc2ccc(OC)cc2)c(OC)c1 was run?
Answer: inactive: 18.2%

Question: How did the Potency turn out when O=S1(=O)[C@H]2C[C@H](CO)O[C@@]2(CO)CN1Cc1ccc(-c2cccc(Cl)c2)cc1 was run?
Answer: inconclusive: 112 µM [inhibitor, single point]

Question: Which Potency does the source give for Cc1ccc(-n2c(=O)[nH]c3sc4c(c3c2=O)CCNC4)cc1C here?
Answer: inconclusive: 158 µM [inhibitor, single point]

Question: Which Potency does the source give for Cc1ccc(CNC(=O)CCCn2c(=O)c3ccccc3n(CC(=O)NCc3ccco3)c2=O)cc1 here?
Answer: inconclusive: 2 µM [inhibitor, full curve, poor fit]

Question: For COc1ccc(C2=NN(c3nc(-c4ccccc4)c(CC(=O)O)s3)C(c3ccco3)C2)cc1 (stereo unspecified), which Potency is on record?
Answer: active: 11.2 µM

Question: Cc1cc(Cl)ccc1NS(=O)(=O)c1cc2[nH]c(=O)c(=O)[nH]c2cc1C was tested. Which Potency did it give?
Answer: inconclusive: 56.2 µM [inhibitor, partial curve, poor fit]

Question: Cc1cc(C)c2nc(Cl)c(Cl)nc2c1 was tested. Which Potency did it give?
Answer: inconclusive: 112 µM [inhibitor, single point]

Question: CSc1ccccc1NC(=O)c1ccc2c(c1)NC(=O)CO2 was tested. Which Potency did it give?
Answer: inconclusive: 50.1 µM [inhibitor, partial curve, poor fit]

Question: Which “activity change, negative = inhibition” value does the source give for CC(C)c1ccc(-n2nnnc2SCc2nc3ccccc3o2)cc1 here?
Answer: inactive: 31.8%

Question: Which Potency does the source give for O=C(Cn1ncc2c3ccccc3n(Cc3cccc(Cl)c3)c2c1=O)N1CCCCC1 here?
Answer: inconclusive: 50.1 µM [inhibitor, partial curve, poor fit]

Question: Which Potency does the source give for COC(=O)[C@@]1(Sc2ccc(C)cc2)CC(=O)N(c2ccc3c(ccn3C)c2)[C@@H]1c1ccccc1 here?
Answer: inconclusive: 39.8 µM [inhibitor, partial curve, poor fit]

Question: Which “activity change, negative = inhibition” value does the source give for C/C(=N/NC(=O)CNC(=O)c1ccccc1F)c1ccc2c(c1)CCCC2 here?
Answer: inactive: 2.96%

Question: With CCOC(=O)NC1(Nc2cccc(Cl)c2)Oc2ccccc2O1 as the molecule, how does the Potency read?
Answer: active: 44.7 µM

Question: How did the “activity change, negative = inhibition” value turn out when O=C(COc1ccccc1F)Nc1ccc2nc(SCc3ccccc3)sc2c1 was run?
Answer: inactive: -14%

Question: Which Potency does the source give for CC(C)(C)c1ccc(CC(=O)N2CCC2(C)C(=O)NS(=O)(=O)c2ccc(Cl)s2)cc1 (stereo unspecified) here?
Answer: inconclusive: 39.8 µM [inhibitor, partial curve, poor fit]

Question: With CCN(Cc1cccs1)C(=O)c1cccs1 as the molecule, how does the “activity change, negative = inhibition” value read?
Answer: inactive: -31.9%

Question: For COc1cc(CN(C(=O)COc2c(C)cccc2C)c2ccccn2)cc(OC)c1OC, which “activity change, negative = inhibition” value is on record?
Answer: inactive: 3.82%

Question: Fc1ccc(N2N=C(c3cccs3)CC2c2ccccc2)cc1 (stereo unspecified) was tested. Which Potency did it give?
Answer: inconclusive: 56.2 µM [inhibitor, partial curve, poor fit]

Question: How did the Potency turn out when CN(C)CCCN(C(=O)c1ccc(S(=O)(=O)N2CCc3ccccc32)cc1)c1nc2c(Cl)cccc2s1 was run?
Answer: inconclusive: 31.6 µM [inhibitor, single point]

Question: CC(C)NC(=O)N(C)C[C@H]1Oc2c(NS(=O)(=O)c3ccccc3)cccc2C(=O)N([C@H](C)CO)C[C@@H]1C was tested. Which Potency did it give?
Answer: inconclusive: 50.1 µM [inhibitor, partial curve, poor fit]

Question: With C=CC[C@H]1Cc2c(Br)cc(Br)c(Br)c2[C@H](CC=C)N1 as the molecule, how does the Potency read?
Answer: inconclusive: 50.1 µM [inhibitor, partial curve, poor fit]

Question: For Cc1sc2nc(CSc3nc4ccccc4s3)[nH]c(=O)c2c1C, which Potency is on record?
Answer: inconclusive: 44.7 µM [inhibitor, partial curve, poor fit]

Question: With COCCC1(N(C)C)CCN(C(=O)CC2CCCCC2)CC1 as the molecule, how does the “activity change, negative = inhibition” value read?
Answer: inactive: 34.8%

Question: Which Potency does the source give for COc1ccc2c(CCNC(=O)C3CCN(c4nc(Cl)nc5nc[nH]c45)CC3)c[nH]c2c1 here?
Answer: inconclusive: 50.1 µM [inhibitor, partial curve, poor fit]

Question: How did the “activity change, negative = inhibition” value turn out when O=C(CSc1ccc2nnc(-c3ccncc3)n2n1)Nc1ccc2c(c1)OCO2 was run?
Answer: inactive: -14%

Question: CCCc1cc(=O)oc2cc(OCC(=O)O)ccc12 was tested. Which Potency did it give?
Answer: inconclusive: 44.7 µM [inhibitor, partial curve, poor fit]

Question: For CC(=O)N[C@@H](CSC(=O)[C@]1([C@@H](O)C(C)C)NC(=O)[C@H](C)[C@@H]1O)C(=O)O, which Potency is on record?
Answer: inconclusive: 126 µM [inhibitor, single point]

Question: How did the “activity change, negative = inhibition” value turn out when Cn1c[n+]([O-])c2ccccc21 was run?
Answer: inactive: -19.3%

Question: COCCN1CCCC2(CCN(C(=O)c3ccc(F)c(Cl)c3)C2)C1=O (stereo unspecified) was tested. Which “activity change, negative = inhibition” value did it give?
Answer: inactive: 2.1%

Question: For OCCN(Cc1ccccc1)Cc1ccc(C(F)(F)F)cc1, which Potency is on record?
Answer: inconclusive: 0.398 µM [inhibitor, full curve, poor fit]

Question: How did the Potency turn out when Cc1ccc(-n2c(C3CCN(C(=O)Cc4ccccc4C)CC3)n[nH]c2=O)cc1 was run?
Answer: inconclusive: 14.1 µM [inhibitor, full curve]

Question: For COc1ccc(-c2ccc(C(=O)NCCN(C)C)c3occc23)c(C)c1, which Potency is on record?
Answer: inconclusive: 44.7 µM [inhibitor, partial curve, poor fit]

Question: How did the “activity change, negative = inhibition” value turn out when Cc1ccoc1C(=O)NCc1ccnc(OCC(F)(F)F)c1 was run?
Answer: inactive: 8%

Question: CC1CC1C(=O)Nc1nc(-c2cccs2)c(-c2cccs2)s1 (stereo unspecified) was tested. Which Potency did it give?
Answer: inconclusive: 35.5 µM [inhibitor, partial curve]

Question: For COc1ccc(Br)cc1CC1C(=O)Nc2ccccc21 (stereo unspecified), which Potency is on record?
Answer: inconclusive: 50.1 µM [inhibitor, partial curve, poor fit]

Question: With CCc1nnsc1C(=O)N1CCc2nc(NC)nc(C(=O)N3CCCC3)c2C1 as the molecule, how does the Potency read?
Answer: inconclusive: 22.4 µM [inhibitor, full curve]

Question: How did the Potency turn out when C=CCn1c(-c2ccccc2)nc(=S)c2c1CCCC2 was run?
Answer: inconclusive: 39.8 µM [inhibitor, partial curve, poor fit]

Question: COc1ccc(-c2csc(NC(=O)CSCC(=O)Nc3cc(C)on3)n2)c(OC)c1 was tested. Which “activity change, negative = inhibition” value did it give?
Answer: inactive: -2.47%

Question: For O=C(COC(=O)C1C=CCCC1)c1cccc([N+](=O)[O-])c1 (stereo unspecified), which Potency is on record?
Answer: inconclusive: 79.4 µM [inhibitor, single point]

Question: For COc1cc(C(O)c2nc(/C=C/c3ccccc3)cs2)ccc1F (stereo unspecified), which Potency is on record?
Answer: inconclusive: 22.4 µM [inhibitor, partial curve, poor fit]

Question: N#Cc1ccc(N2CCc3ccccc3C2)c([N+](=O)[O-])c1 was tested. Which “activity change, negative = inhibition” value did it give?
Answer: inactive: 10%

Question: With CCN(CCCNC(=O)CCCN1C(=O)COc2ccc(C)cc21)c1cccc(C)c1 as the molecule, how does the “activity change, negative = inhibition” value read?
Answer: inactive: -30.2%

Question: With CCN1CNC(=S)N(c2cccc(C)c2C)C1 as the molecule, how does the “activity change, negative = inhibition” value read?
Answer: inactive: -1.13%

Question: CN1C2C=C(N(CCc3c[nH]c4ccccc34)C(=O)c3ccc(Cl)cc3)CC1CC2 (stereo unspecified) was tested. Which Potency did it give?
Answer: inconclusive: 50.1 µM [inhibitor, partial curve, poor fit]

Question: Cc1cccc(C)c1NC(=O)COC(=O)CSc1nnc(N)s1 was tested. Which Potency did it give?
Answer: inconclusive: 3.16 µM [inhibitor, full curve, poor fit]

Question: With Cc1c(N)cc2c(c1N)C(C)(C)CC2(C)C as the molecule, how does the Potency read?
Answer: inconclusive: 100 µM [inhibitor, single point]

Question: With CC(NC(=O)/C(=C\c1ccc(Br)cc1)NC(=O)c1ccc(Br)o1)C(=O)O (stereo unspecified) as the molecule, how does the Potency read?
Answer: inconclusive: 44.7 µM [inhibitor, partial curve, poor fit]

Question: Which Potency does the source give for Cc1cc(C)c(Nc2n[nH]c(=S)s2)cc1C here?
Answer: active: 28.2 µM

Question: For O=c1cc[nH]c2cccc(Cc3ccccc3)c12, which Potency is on record?
Answer: inconclusive: 79.4 µM [inhibitor, partial curve, poor fit]

Question: How did the Potency turn out when Cc1noc(C)c1CSCC(=O)Nc1nc2ccccc2s1 was run?
Answer: inconclusive: 50.1 µM [inhibitor, partial curve, poor fit]

Question: For Cc1ccc(S(C)(=O)=O)cc1NC(=O)CCNC(=O)Cc1ccccc1, which “activity change, negative = inhibition” value is on record?
Answer: inactive: -24.5%

Question: With CCN(Cc1ccccc1)C(=O)CCc1nc(CN2CCN(C(=O)c3ccc([N+](=O)[O-])cc3)CC2)no1 as the molecule, how does the Potency read?
Answer: inconclusive: 35.5 µM [inhibitor, partial curve, poor fit]

Question: Which “activity change, negative = inhibition” value does the source give for O=C(CCCCn1c(=O)c2ccccc2n(Cc2ccccc2F)c1=O)NCc1ccc2c(c1)OCO2 here?
Answer: inactive: -19.4%

Question: For Cc1c(Cl)c(C(F)(F)F)nn1CC(=O)Nc1cc(Cl)ccc1Cl, which Potency is on record?
Answer: inconclusive: 1.78 µM [inhibitor, full curve, poor fit]

Question: Nc1ccc(C(=O)NCc2cccnc2)cc1 was tested. Which Potency did it give?
Answer: inconclusive: 79.4 µM [inhibitor, single point]

Question: COC(=O)C1=C(C)N(Cc2ccc(Cl)cc2)C(=S)NC1c1cccc(Br)c1 (stereo unspecified) was tested. Which Potency did it give?
Answer: inconclusive: 35.5 µM [inhibitor, partial curve, poor fit]

Reference: PubChem BioAssay AID1671190 (National Center for Advancing Translational Sciences (NCATS), 2021)
